# Data as given in PubChem BioAssay AID1671195 (Yale University, 2021).
# Assay: 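Regulators of LDL receptor activity judged by labelled LDL uptake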 (primary screen)
# Cell system: human Huh7 hepatoma cells
# Knock-down reagent: siRNA pool against human genes, 18 nM
# Duration: about 2 to 2.5 days of knockdown, then 8 h LDL uptake
# Treatment: DiI-labelled LDL at 30 µg/ml for 8 h, in lipoprotein-deficient serum medium
# Read-out: 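Per-cell DiI-LDL intensity by automated imaging; well means scaled to the plate median and given as a robust z-score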
# Scale: robust z-score: higher = more LDL uptake after knockdown
# Rule for the call: 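Active when two or more replicates show a robust z-score above 2 or below -2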
# Shown is one part, drawn at random, of about 22,000 deposited reagents. About 1,510 of them (6.9%) were called active. 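Active includes knockdowns raising or lowering LDL uptake; positive z-scores mean more uptake, negative mean less.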
gene,"robust z-score, replicate 1","robust z-score, replicate 2","robust z-score, replicate 3",Outcome
LOC440731 (retired record) (GeneID 440731),0.134,0.0864,0.341,inactive
ISOC1 (GeneID 51015),-0.765,-0.322,-2.42,inactive
CYFIP1 (GeneID 23191),0.557,3.3,0.0725,inactive
HAPLN4 (GeneID 404037),-2.1,-1.62,-2.07,active
MUCL1 (GeneID 118430),-0.281,-0.745,-0.627,inactive
MAGEC2 (GeneID 51438),1.09,0.528,1.26,inactive
ARID1A (GeneID 8289),-1.02,-0.215,-0.556,inactive
CYSRT1 (GeneID 375791),-0.109,-0.454,-0.156,inactive
TARM1 (GeneID 441864),0.528,0.487,0.642,inactive
TMEM95 (GeneID 339168),1.86,1.85,1.96,inactive
TENT5A (GeneID 55603),-1.65,-0.288,-1.86,inactive
POLR3GL (GeneID 84265),-0.257,-0.167,-0.315,inactive
CCDC60 (GeneID 160777),-0.801,-0.435,-0.917,inactive
COBLL1 (GeneID 22837),1.75,1.16,1.07,inactive
PLOD2 (GeneID 5352),-0.852,-0.692,-0.605,inactive
LOC389651 (retired record) (GeneID 389651),-0.251,-0.0871,0.0115,inactive
PPP1R7 (GeneID 5510),0.221,0.303,-0.29,inactive
EFR3B (GeneID 22979),-1.12,-0.266,-1.71,inactive
DTNB (GeneID 1838),-0.141,0.332,-0.651,inactive
METRN (GeneID 79006),-1.33,-1.6,-1.1,inactive
RFESD (GeneID 317671),3.54,2.95,3.16,active
MYLK (GeneID 4638),0.41,-0.33,-0.018,inactive
PKMYT1 (GeneID 9088),3.47,1.66,1.84,inactive
LOC441134 (retired record) (GeneID 441134),2.73,2.29,2.17,active
INSL3 (GeneID 3640),0.172,-0.164,0.0265,inactive
HLA-DRA (GeneID 3122),-1.3,0.176,-1.24,inactive
DSPP (GeneID 1834),0.596,-1.22,-0.251,inactive
GIMAP8 (GeneID 155038),-0.182,0.867,0.000544,inactive
SPG21 (GeneID 51324),0.134,-0.34,0.694,inactive
ACADM (GeneID 34),0.733,0.076,0.348,inactive
CETP (GeneID 1071),-0.522,-0.0236,0.3,inactive
SETD3 (GeneID 84193),0.0218,-0.00588,-0.405,inactive
USP7P1 (GeneID 345576),-0.792,-0.63,-0.906,inactive
ZDHHC17 (GeneID 23390),-0.581,0.966,-0.62,inactive
TCEA1P3 (GeneID 340501),0.738,0.761,0.496,inactive
POU6F2 (GeneID 11281),0.823,0.952,1.03,inactive
LOC440767 (retired record) (GeneID 440767),-0.416,0.77,0.625,inactive
RAVER2 (GeneID 55225),1.41,0.885,-0.751,inactive
SLC16A14 (GeneID 151473),1.37,1.71,1.62,inactive
KIF25-AS1 (GeneID 100505879),0.48,0.93,0.193,inactive
SLC6A18 (GeneID 348932),-0.499,0.0498,-0.45,inactive
GPR137B (GeneID 7107),2.31,1.6,2.62,active
NKAIN1 (GeneID 79570),-0.919,-0.676,-0.771,inactive
SORBS2 (GeneID 8470),-0.33,-0.8,0.0518,inactive
UBAP1L (GeneID 390595),0.578,0.872,0.359,inactive
TRHDE-AS1 (GeneID 283392),0.0738,0.204,0.303,inactive
ST3GAL5 (GeneID 8869),-0.728,-0.393,-0.492,inactive
UGP2 (GeneID 7360),2.12,2.77,2.48,active
RPUSD2 (GeneID 27079),0.732,1.39,0.964,inactive
DAZL (GeneID 1618),-1.01,-0.233,-0.932,inactive
RIOX2 (GeneID 84864),-0.0647,-0.527,-0.609,inactive
LOC728329 (GeneID 728329),-0.954,-0.376,-0.775,inactive
PCYOX1L (GeneID 78991),-0.459,-0.971,-0.835,inactive
RPL7 (GeneID 6129),-1.69,-0.716,-1.65,inactive
LOC440930 (retired record) (GeneID 440930),-0.219,-0.386,-0.65,inactive
LOC645733 (GeneID 645733),0.271,0.333,0.00624,inactive

Looked up above:
Value for LOC441134 (retired record) (GeneID 441134) under “robust z-score, replicate 3”: 2.17
CYFIP1 (GeneID 23191), robust z-score, replicate 3 = 0.0725
RAVER2 (GeneID 55225), robust z-score, replicate 3 = -0.751
RIOX2 (GeneID 84864), Outcome: inactive
CCDC60 (GeneID 160777), robust z-score, replicate 1 → -0.801
Value of SLC16A14 (GeneID 151473) under “robust z-score, replicate 1”: 1.37

The list goes on:
gene,"robust z-score, replicate 1","robust z-score, replicate 2","robust z-score, replicate 3",Outcome
FRAS1 (GeneID 80144),-0.725,-0.492,-0.56,inactive
LOC387941 (retired record) (GeneID 387941),-0.928,-0.996,-0.955,inactive
PRPSAP1 (GeneID 5635),-0.474,-0.123,0.106,inactive
MORC3 (GeneID 23515),-1.26,-2.38,0.815,inactive
RPL23AP44 (GeneID 391825),2.57,1.97,2.59,active
ZNF697 (GeneID 90874),-0.126,-0.551,-0.323,inactive
HOXC10 (GeneID 3226),0.281,-0.588,-0.211,inactive
MRPL45 (GeneID 84311),-0.654,-0.332,-0.746,inactive
HSF5 (GeneID 124535),-1.21,-1.53,-1.09,inactive
CUTA (GeneID 51596),-0.614,-1.17,-0.56,inactive
MTRF1L (GeneID 54516),-2.4,-1.68,-0.888,inactive
LOC285047 (retired record) (GeneID 285047),0.574,0.2,-0.0535,inactive
ZG16 (GeneID 653808),-0.909,0.479,0.633,inactive
LUZP4 (GeneID 51213),0.81,1.19,1.38,inactive
SLC35E1 (GeneID 79939),-0.726,-1.37,-1.08,inactive
GFI1B (GeneID 8328),0.342,0.365,-0.193,inactive
IMPG2 (GeneID 50939),0.751,-1.22,1.18,inactive
UGT1A9 (GeneID 54600),1.2,1.47,1.94,inactive
NPY5R (GeneID 4889),-0.0197,-0.221,0.434,inactive
SOX8 (GeneID 30812),-0.974,-0.388,-0.589,inactive
CD276 (GeneID 80381),0.278,-0.524,-0.263,inactive
TCEANC2 (GeneID 127428),1.44,1.09,0.392,inactive
FARSB (GeneID 10056),-0.102,-0.72,-0.457,inactive
IRS1 (GeneID 3667),-0.375,-1.73,-0.782,inactive
GXYLT1 (GeneID 283464),-0.104,-0.0462,0.292,inactive
MED8 (GeneID 112950),0.0549,-0.32,0.0423,inactive
C10orf62 (GeneID 414157),-0.628,1.2,0.63,inactive
LOC441689 (retired record) (GeneID 441689),0.702,0.417,0.617,inactive
NTN3 (GeneID 4917),0.286,1.32,-0.169,inactive
RXYLT1 (GeneID 10329),3.72,2.88,0.439,active
PIGT (GeneID 51604),-1.97,-1.04,-1.38,inactive
